Results are given in words; binding and its absence hold for the method and conditions named. For part of these data: Binding calls can cover weak binding; strength is not graded here. For part of these data: Binding seen in cells or lysates may run through a third protein. For part of these data: Where a sequence is shown, tags or fusion partners need not be part of it. Each block holds one molecule with its values, some of them ahead of it.
Experiments:
[1] = biological target: T1, hemagglutinin tagged wild type Api5 (HA-Api5 LXXLL) (UniProt Q9BZZ5); test: co-IP; MCF7 cells transfected with HA-Api5 (LXXLL or LXXAA), nuclear extract, HA Tagged Protein Isolation Kit (Miltenyi Biotec); Western blot against endogenous ERα and RPS19
T1 sequence: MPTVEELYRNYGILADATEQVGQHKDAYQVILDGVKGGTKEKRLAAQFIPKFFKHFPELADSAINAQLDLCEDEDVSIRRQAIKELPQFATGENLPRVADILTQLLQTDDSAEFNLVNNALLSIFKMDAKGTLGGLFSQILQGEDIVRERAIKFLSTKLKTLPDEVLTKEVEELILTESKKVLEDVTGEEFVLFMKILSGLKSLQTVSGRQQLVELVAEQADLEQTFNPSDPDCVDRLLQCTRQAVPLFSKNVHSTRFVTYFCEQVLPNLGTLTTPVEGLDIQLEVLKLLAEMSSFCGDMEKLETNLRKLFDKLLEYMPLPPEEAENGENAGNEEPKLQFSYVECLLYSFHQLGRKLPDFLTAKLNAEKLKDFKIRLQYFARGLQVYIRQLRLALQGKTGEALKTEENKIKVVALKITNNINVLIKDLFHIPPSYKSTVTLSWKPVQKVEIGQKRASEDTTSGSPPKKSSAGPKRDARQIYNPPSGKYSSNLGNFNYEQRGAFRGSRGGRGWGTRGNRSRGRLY

[2] = biological target: T2, mutated hemagglutinin tagged Api5 where the LXXLL has been mutated into LXXAA (UniProt Q9BZZ5); test: as above
T2 sequence: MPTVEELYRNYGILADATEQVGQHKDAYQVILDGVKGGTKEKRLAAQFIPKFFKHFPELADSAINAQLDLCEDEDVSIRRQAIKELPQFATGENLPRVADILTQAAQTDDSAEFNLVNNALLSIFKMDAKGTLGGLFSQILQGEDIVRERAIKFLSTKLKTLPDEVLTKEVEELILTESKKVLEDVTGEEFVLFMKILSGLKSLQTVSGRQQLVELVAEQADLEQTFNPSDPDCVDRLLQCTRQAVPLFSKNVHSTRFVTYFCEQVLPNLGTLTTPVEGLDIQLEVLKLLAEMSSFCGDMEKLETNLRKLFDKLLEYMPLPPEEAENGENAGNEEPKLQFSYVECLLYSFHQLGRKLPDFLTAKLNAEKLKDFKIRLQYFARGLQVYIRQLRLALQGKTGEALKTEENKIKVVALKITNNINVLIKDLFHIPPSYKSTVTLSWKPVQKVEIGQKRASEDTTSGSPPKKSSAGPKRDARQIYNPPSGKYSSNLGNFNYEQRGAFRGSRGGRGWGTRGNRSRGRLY

[3] = biological target: T3, Api5 (Apoptosis inhibitor 5), endogenous (human (endogenous in MCF7)) (UniProt Q9BZZ5); test: co-IP; endogenous proteins, sonicated nuclear extract of MCF7 cells (lysis buffer 150 mM NaCl, 1% Triton, 50 mM Tris HCl pH 8), BioAdembeads protein G kit; IP of Api5 or of ERα, Western blot
T3 sequence: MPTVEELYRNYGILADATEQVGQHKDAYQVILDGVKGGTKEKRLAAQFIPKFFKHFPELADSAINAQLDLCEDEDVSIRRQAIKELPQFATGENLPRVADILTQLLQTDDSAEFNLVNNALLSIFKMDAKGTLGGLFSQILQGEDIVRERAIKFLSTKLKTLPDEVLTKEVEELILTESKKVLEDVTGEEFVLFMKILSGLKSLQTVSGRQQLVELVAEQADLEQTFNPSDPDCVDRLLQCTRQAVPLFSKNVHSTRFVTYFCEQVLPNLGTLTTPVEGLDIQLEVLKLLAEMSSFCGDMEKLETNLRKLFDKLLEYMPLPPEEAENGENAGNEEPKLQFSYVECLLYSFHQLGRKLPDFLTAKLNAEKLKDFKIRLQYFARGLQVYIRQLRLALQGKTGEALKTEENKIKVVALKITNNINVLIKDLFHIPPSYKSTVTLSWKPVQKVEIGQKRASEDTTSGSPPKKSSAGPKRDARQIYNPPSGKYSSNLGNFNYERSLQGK

[4] = biological target: Estrogen receptor alpha (ERα), endogenous (human (endogenous in MCF7)); test: as above
[5] = biological target: GST-ERα A/B domain (amino acids 2-184); test: pull-down; GST-ERα domains or full length bound to glutathione-Sepharose 4B beads, incubated with recombinant Api5 protein; Western blot; both purified
[6] = biological target: GST-ERα D domain (amino acids 251-312); test: as above
[7] = biological target: GST-ERα D/E/F domains (amino acids 251-595); test: as above
[8] = biological target: GST-ERα E/F domains (amino acids 313-599); test: as above
[9] = biological target: full length GST-ERα (1-595); test: as above

binding [1]: binds
binding [2]: no binding
binding [3]: binds
Molecule: Estrogen receptor alpha (ERα), endogenous (human (endogenous in MCF7))

binding [4]: binds
B1: Api5 (Apoptosis inhibitor 5), endogenous (protein, UniProt Q9BZZ5-2 1-504)
chain: MPTVEELYRNYGILADATEQVGQHKDAYQVILDGVKGGTKEKRLAAQFIPKFFKHFPELADSAINAQLDLCEDEDVSIRRQAIKELPQFATGENLPRVADILTQLLQTDDSAEFNLVNNALLSIFKMDAKGTLGGLFSQILQGEDIVRERAIKFLSTKLKTLPDEVLTKEVEELILTESKKVLEDVTGEEFVLFMKILSGLKSLQTVSGRQQLVELVAEQADLEQTFNPSDPDCVDRLLQCTRQAVPLFSKNVHSTRFVTYFCEQVLPNLGTLTTPVEGLDIQLEVLKLLAEMSSFCGDMEKLETNLRKLFDKLLEYMPLPPEEAENGENAGNEEPKLQFSYVECLLYSFHQLGRKLPDFLTAKLNAEKLKDFKIRLQYFARGLQVYIRQLRLALQGKTGEALKTEENKIKVVALKITNNINVLIKDLFHIPPSYKSTVTLSWKPVQKVEIGQKRASEDTTSGSPPKKSSAGPKRDARQIYNPPSGKYSSNLGNFNYERSLQGK

binding [5]: no binding
binding [6]: no binding
binding [7]: no binding
binding [8]: no binding
binding [9]: binds
B2: Recombinant Api5 protein (protein, UniProt Q9BZZ5 1-524)
chain: MPTVEELYRNYGILADATEQVGQHKDAYQVILDGVKGGTKEKRLAAQFIPKFFKHFPELADSAINAQLDLCEDEDVSIRRQAIKELPQFATGENLPRVADILTQLLQTDDSAEFNLVNNALLSIFKMDAKGTLGGLFSQILQGEDIVRERAIKFLSTKLKTLPDEVLTKEVEELILTESKKVLEDVTGEEFVLFMKILSGLKSLQTVSGRQQLVELVAEQADLEQTFNPSDPDCVDRLLQCTRQAVPLFSKNVHSTRFVTYFCEQVLPNLGTLTTPVEGLDIQLEVLKLLAEMSSFCGDMEKLETNLRKLFDKLLEYMPLPPEEAENGENAGNEEPKLQFSYVECLLYSFHQLGRKLPDFLTAKLNAEKLKDFKIRLQYFARGLQVYIRQLRLALQGKTGEALKTEENKIKVVALKITNNINVLIKDLFHIPPSYKSTVTLSWKPVQKVEIGQKRASEDTTSGSPPKKSSAGPKRDARQIYNPPSGKYSSNLGNFNYEQRGAFRGSRGGRGWGTRGNRSRGRLY
